# Measured values: PubChem BioAssay AID624297 (National Center for Advancing Translational Sciences (NCATS), 2012)
# The campaign covered roughly 340,000 compounds. About 6,200 (1.8%) were called active. Inconclusive means that the source gave no clear call. Such entries were picked first, then a sample of the others. Calls come from the whole dose curve; as a rule, active = well fitted activation curve with a large enough effect; inconclusive = small, poorly fitted or top-dose-only effect; inactive = no such curve, though single readings can be large or run the other way. Potencies beside an inconclusive call are fits to weak or partial responses and may not hold up.
# Experiment: A quantitative high throughput screen for small molecules that induce DNA re-replication in SW480 colon adenocarcinoma cells. For re-replication activation: % of control where 0% means no effect. Note: nearly all actives have a fitted effect of over 55% in size.
# Conditions: Hoechst DNA content imaging, 48 h; re-replication activation: at 46.1 µM (top of the series)
# Outline: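 250 cells/well; 23 nL cpd via pin tool; 48 hr, 37 C, 5% CO2; Hoechst 40 min; imager read of total nuclear intensity, ex 405/em 500-530 nm.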
# Potency is the fitted concentration of half-maximal effect.
SMILES,Potency,re-replication activation
COc1ccc(NC(=O)CCn2c(=O)c3cccn3c3ccccc32)c(OC)c1,"inconclusive: 29.1 µM [activator, single point]",–
Cc1c(C(=O)Nc2ccccc2)sc2nc3n(c(=O)c12)CCCCC3,"inconclusive: 29.1 µM [activator, single point]",–
Cc1ccc(S(=O)(=O)c2c(C)nn(C(C)(C)C)c2OC(=O)c2cccs2)cc1,–,inactive: -4.75%
c1ccc(-c2ccc3c(c2)NCCN3)cc1,"inconclusive: 29.1 µM [activator, partial curve, poor fit]",–
CC1CCN(C(=S)c2ccc([N+](=O)[O-])cc2)CC1,"inconclusive: 20.6 µM [activator, single point]",–
CCn1c(CCNC(=O)c2ccc(OC)cc2)nnc1SCc1ccc(Cl)cc1Cl,"inconclusive: 2.91 µM [activator, partial curve, poor fit]",–
O=C(C1CCN(CCCc2ccccc2)CC1)N(CCc1ccccc1)Cc1ccccc1,–,inconclusive: -484% [activator]
COc1ccccc1-c1cnn2c(NCCc3ccccc3)cc(C)nc12,"inconclusive: 16.4 µM [activator, partial curve, poor fit]",–
O=C(NCCOc1ccccc1)c1cc(C(=O)NCCOc2ccccc2)cc([N+](=O)[O-])c1,"inconclusive: 0.58 µM [activator, full curve, poor fit]",–
O=C(c1ccccc1)N1N=C(C(F)(F)F)CC1(O)c1ccccc1O (stereo not given),–,inactive: 8.7%
COc1ccc(CCNC(=O)c2cc3c(=O)n4ccccc4nc3n(CCN3CCOCC3)c2=N)cc1,active: 23.1 µM,–
Cc1ccc(-c2cc(C(=O)N/N=C/c3ccoc3)c3ccccc3n2)cc1,"inconclusive: 29.1 µM [activator, single point]",–
Cc1cc(C)cc(NC(=O)N2CCCC2C(=O)Nc2ccc(-n3cnnn3)cc2)c1 (stereo not given),–,inactive: -26.2%
N/C(=N\OC(=O)CCCc1ccccc1)c1ccccc1,"inconclusive: 16.4 µM [activator, single point]",–
CC(C)CCN1C(N(C)C)=NC[C@@H]1C,–,inactive: 0.698%
Cc1occc1-c1nnc(SCC(=O)Nc2nc(C(C)(C)C)cs2)o1,"inconclusive: 20.6 µM [activator, single point]",–
Cc1ccccc1Cn1cccc1/C=C1/C(=N)N2C=CSC2=NC1=O,–,inactive: 1.3%
Cc1noc(C(=O)N2CC3(C)CC2CC(C)(C)C3)c1Cl (stereo not given),–,inactive: 2.45%
CCn1nc(C)cc1C(=O)N1CCCC(N2CCN(Cc3ccc4c(c3)OCO4)CC2)C1 (stereo not given),"inconclusive: 31.6 µM [activator, single point]",–
N#Cc1cc(NCC2CCCO2)c([N+](=O)[O-])cc1C#N (stereo not given),–,inactive: 1.45%
Cc1ccc(-c2nc3cccnc3o2)cc1NC(=O)COc1ccc(C(C)(C)C)cc1,"inconclusive: 25.9 µM [activator, single point]",–
COc1ccc(N2CCN(C(=O)CN3C(=O)NC4(CCCCCC4)C3=O)CC2)cc1,"inconclusive: 29.1 µM [activator, single point]",–
CC(=O)Nc1ccc(OCc2cccc3ccccc23)cc1,"inconclusive: 5.8 µM [activator, full curve, poor fit]",–

SMILES,Potency,re-replication activation
CC(C)c1ccc(NC(=O)CSC(C)c2nc3ccccc3c(=O)[nH]2)cc1 (stereo not given),–,inactive: -6.17%
O=C(NNC(=S)Nc1ccc(Cl)c(Cl)c1)c1cccc([N+](=O)[O-])c1,"inconclusive: 29.1 µM [activator, single point]",–
CC(=O)N1C[C@H](O)C[C@H]1C(=O)O,–,inactive: -41.5%
O=C(N/N=C/c1sc(N2CCCCC2)nc1-c1cccs1)c1cccnc1,"inconclusive: 0.731 µM [activator, full curve, poor fit]",–
O=c1[nH]c(SCc2cccc(F)c2)nc2ccccc12,"inconclusive: 6.51 µM [activator, full curve, poor fit]",–
COc1ccccc1N(CC(=O)NCCSCc1cccc(Cl)c1)S(C)(=O)=O,–,inactive: 7.49%
O=C(CC(=O)c1ccccc1)CC(O)(C=Cc1ccccc1)c1ccccc1 (stereo not given),"inconclusive: 23.1 µM [activator, single point]",–
S=C(NCc1ccccc1)Nc1ccncc1,–,inactive: 0.286%
COc1ccc2nc(C)cc(SCC(=O)N/N=C/c3ccccc3)c2c1,–,inactive: -6.45%
C#CCOCCOCCOCCNc1nc(N2CCOCC2)nc(N2CCN(C(=O)[C@H](CO)n3cc([C@@H](N)C(C)C)nn3)CC2)n1,–,inactive: 17.4% [at 9.22 µM]
CCN1C(=O)c2cccc3c(Cl)ccc(c23)C1=O,"inconclusive: 18.4 µM [activator, single point]",–
Cc1ccc(OCC(=O)Nc2ccccc2C(=O)N2CCCCC2)cc1,–,inactive: -0.0628%
Cc1ccc(-c2csc(NC(=O)CSc3nc4ccccc4c(=O)n3CCCN(C)C)n2)cc1,"inconclusive: 0.58 µM [activator, full curve, poor fit]",–
OC1(c2cccc(C(F)(F)F)c2)CCN(c2ncnc3c2[nH]c2ccccc23)CC1,"inconclusive: 25.9 µM [activator, single point]",–
COc1cc(C(=O)NCc2ccc(S(N)(=O)=O)cc2)ccc1OCC(=O)Nc1cccc(C(F)(F)F)c1,"inconclusive: 29.1 µM [activator, single point]",–
CC1Cc2ccccc2N1Cc1cc(=O)c(OCC(=O)Nc2ccccc2)co1 (stereo not given),"inconclusive: 18.4 µM [activator, partial curve, poor fit]",–
CCCOc1ccc(C(=O)Nc2nc(C)c(Cc3ccc4c(c3)OCO4)s2)cc1,"inconclusive: 10.3 µM [activator, single point]",–
COc1cccc(C(=O)Nc2cccc(-c3nc4ncccc4o3)c2C)c1,–,inactive: 1.69%
CC[n+]1c(/C=C/c2ccc(OC(C)=O)c(OC)c2)ccc2ccccc21,–,inactive: 36.9%
CCN1CCc2c(C#N)c(N3CCOCC3)nc(NCCO)c2C1,"inconclusive: 0.116 µM [activator, partial curve, poor fit]",–
Cc1ccc2c(CC(=O)NCc3ccco3)coc2c1C,"inconclusive: 23.1 µM [activator, single point]",–
Cc1ccc(S(=O)(=O)N(C)C)cc1NC(=O)COC(=O)/C=C/c1cnc2ccccc2n1,"inconclusive: 25.9 µM [activator, partial curve, poor fit]",–

# Entries of single compounds from above.
# COc1cc(C(=O)NCc2ccc(S(N)(=O)=O)cc2)ccc1OCC(=O)Nc1cccc(C(F)(F)F)c1 reads Potency: inconclusive: 29.1 µM [activator, single point]
# Cc1ccc(S(=O)(=O)N(C)C)cc1NC(=O)COC(=O)/C=C/c1cnc2ccccc2n1 reads Potency: inconclusive: 25.9 µM [activator, partial curve, poor fit]
# CCN1CCc2c(C#N)c(N3CCOCC3)nc(NCCO)c2C1 reads Potency: inconclusive: 0.116 µM [activator, partial curve, poor fit]
